Values quoted from earlier work in patent publication US11053223B2, “Phenoxyquinazoline compounds and their use in treating cancer” (AstraZeneca AB, priority 2017, dated 2021).
At least one structure is not confirmed: it was looked up by name or label, or the drawing left a doubt.

Test system: GIST
Details: GIST patients following progression on imatinib; cited from earlier work

CCN(CC)CCNC(=O)c1c(C)[nH]c(/C=C2\C(=O)Nc3ccc(F)cc32)c1C [sunitnib, Sunitinib]
Clinical progression observed (time of treatment): ≤ 1 year
